For 37 targets, log2 fold change results are on record in the supplement of paper PMC10849652.

Sequences of proteins named here, by UniProt entry; tags and fusion partners are left off. A change or cut given only in a name is not applied to a line headed by its entry.
UniProt Q96A37: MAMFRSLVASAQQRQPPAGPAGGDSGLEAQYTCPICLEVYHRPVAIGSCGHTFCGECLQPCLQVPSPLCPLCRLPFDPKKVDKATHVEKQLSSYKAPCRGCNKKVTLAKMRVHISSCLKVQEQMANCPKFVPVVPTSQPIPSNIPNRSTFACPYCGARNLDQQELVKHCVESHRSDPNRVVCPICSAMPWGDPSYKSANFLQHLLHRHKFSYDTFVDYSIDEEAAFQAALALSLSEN
UniProt O14730: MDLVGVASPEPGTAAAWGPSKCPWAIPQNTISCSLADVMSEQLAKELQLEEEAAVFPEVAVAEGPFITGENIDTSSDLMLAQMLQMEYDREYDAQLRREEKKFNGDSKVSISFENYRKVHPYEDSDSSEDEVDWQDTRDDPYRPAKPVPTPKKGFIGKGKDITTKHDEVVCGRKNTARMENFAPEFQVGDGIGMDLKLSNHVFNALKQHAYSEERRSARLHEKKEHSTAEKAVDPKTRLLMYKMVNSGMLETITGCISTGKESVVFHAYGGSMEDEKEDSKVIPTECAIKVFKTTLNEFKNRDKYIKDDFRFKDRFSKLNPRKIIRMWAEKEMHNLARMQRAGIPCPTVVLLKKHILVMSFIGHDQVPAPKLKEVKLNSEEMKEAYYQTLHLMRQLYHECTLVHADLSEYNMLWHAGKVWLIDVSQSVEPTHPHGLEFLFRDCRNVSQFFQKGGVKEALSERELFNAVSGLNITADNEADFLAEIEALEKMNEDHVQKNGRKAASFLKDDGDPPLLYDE
UniProt Q9NTX7: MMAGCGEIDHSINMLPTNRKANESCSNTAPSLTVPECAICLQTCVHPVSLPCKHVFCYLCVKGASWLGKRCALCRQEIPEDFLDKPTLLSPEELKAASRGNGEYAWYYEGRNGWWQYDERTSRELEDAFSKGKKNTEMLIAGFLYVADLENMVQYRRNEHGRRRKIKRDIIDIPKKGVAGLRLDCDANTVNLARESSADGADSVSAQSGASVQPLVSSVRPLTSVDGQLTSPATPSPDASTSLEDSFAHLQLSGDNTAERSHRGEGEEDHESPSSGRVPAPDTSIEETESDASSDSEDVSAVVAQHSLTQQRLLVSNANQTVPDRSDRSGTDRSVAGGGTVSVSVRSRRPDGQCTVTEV
UniProt O43353, whole entry, looked up: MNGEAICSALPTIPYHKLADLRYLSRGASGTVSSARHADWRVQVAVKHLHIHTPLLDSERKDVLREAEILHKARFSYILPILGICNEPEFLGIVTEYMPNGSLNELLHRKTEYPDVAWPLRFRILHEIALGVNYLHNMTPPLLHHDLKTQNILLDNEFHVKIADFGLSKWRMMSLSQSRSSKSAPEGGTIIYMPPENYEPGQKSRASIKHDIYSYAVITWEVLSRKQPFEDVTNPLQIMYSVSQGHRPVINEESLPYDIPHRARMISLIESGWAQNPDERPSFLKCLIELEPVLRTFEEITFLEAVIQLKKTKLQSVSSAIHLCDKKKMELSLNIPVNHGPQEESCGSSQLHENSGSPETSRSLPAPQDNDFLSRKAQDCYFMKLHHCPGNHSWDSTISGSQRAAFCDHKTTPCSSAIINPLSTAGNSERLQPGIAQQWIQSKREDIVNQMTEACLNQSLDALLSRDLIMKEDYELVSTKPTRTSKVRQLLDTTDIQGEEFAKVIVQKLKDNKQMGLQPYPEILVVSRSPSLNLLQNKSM
UniProt Q8IYW5, whole entry, looked up: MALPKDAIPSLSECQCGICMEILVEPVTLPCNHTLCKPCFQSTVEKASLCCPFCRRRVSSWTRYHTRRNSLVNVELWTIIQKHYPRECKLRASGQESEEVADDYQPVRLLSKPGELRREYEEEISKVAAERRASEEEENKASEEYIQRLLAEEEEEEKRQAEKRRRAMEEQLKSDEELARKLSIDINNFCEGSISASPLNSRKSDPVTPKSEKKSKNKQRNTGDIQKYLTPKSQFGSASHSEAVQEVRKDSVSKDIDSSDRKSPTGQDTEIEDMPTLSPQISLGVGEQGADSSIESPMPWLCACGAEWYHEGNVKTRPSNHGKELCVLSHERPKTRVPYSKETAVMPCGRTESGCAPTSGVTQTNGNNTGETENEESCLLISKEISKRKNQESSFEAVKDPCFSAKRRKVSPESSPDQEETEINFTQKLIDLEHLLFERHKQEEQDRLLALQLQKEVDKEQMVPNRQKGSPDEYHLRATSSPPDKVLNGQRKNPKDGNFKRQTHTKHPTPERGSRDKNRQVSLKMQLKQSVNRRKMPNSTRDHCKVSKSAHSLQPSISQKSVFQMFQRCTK
UniProt Q96TC7: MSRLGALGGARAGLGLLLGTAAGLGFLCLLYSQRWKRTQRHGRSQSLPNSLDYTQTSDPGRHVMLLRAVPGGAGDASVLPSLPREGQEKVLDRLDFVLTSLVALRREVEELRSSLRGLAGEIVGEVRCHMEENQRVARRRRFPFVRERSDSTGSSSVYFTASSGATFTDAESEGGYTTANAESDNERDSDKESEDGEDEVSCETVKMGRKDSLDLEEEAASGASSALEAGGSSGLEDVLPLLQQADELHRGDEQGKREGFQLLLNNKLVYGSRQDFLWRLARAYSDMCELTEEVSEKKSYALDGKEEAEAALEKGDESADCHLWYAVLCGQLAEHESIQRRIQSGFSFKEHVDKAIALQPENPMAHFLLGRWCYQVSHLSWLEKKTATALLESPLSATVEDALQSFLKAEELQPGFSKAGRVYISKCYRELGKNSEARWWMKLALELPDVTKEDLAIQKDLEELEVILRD
UniProt Q5XPI4: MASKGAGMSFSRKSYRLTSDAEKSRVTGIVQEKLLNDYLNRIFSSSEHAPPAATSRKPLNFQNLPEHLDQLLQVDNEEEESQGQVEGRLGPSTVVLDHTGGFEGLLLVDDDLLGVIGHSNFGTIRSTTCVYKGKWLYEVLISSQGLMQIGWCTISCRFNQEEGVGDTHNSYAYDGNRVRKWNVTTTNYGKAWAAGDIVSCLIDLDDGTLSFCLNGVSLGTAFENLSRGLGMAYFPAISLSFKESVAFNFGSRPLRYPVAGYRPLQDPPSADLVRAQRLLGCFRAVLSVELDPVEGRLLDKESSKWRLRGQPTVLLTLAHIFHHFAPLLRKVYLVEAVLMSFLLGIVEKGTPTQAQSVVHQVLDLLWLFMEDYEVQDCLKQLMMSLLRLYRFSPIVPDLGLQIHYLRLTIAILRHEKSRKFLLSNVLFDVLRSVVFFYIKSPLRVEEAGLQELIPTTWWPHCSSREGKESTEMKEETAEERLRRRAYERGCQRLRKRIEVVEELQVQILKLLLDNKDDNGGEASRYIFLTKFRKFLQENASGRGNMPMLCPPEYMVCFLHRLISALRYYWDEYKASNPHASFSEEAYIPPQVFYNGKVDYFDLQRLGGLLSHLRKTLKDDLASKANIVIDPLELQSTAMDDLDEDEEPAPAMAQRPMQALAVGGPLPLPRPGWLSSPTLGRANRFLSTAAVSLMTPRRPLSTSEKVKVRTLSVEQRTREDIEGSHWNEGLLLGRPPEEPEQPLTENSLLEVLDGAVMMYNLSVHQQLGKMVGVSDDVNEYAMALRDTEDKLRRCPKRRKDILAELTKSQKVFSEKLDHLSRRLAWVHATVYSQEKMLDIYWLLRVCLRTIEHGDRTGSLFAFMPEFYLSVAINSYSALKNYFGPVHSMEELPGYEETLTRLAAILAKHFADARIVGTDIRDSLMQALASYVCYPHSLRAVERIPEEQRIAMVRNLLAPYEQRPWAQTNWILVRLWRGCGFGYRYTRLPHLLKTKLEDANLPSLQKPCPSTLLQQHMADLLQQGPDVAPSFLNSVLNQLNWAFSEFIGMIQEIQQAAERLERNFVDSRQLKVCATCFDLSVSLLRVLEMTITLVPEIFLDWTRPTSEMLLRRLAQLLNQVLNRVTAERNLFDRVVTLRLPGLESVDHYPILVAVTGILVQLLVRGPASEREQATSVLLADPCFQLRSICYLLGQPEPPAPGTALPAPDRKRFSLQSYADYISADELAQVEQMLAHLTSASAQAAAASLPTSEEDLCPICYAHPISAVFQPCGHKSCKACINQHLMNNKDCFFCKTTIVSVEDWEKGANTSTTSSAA
UniProt Q8TDP1: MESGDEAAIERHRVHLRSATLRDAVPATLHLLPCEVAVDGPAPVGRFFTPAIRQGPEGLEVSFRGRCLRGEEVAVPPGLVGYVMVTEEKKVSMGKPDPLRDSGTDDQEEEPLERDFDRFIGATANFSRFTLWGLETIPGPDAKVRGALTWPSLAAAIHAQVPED
UniProt Q9P0P0: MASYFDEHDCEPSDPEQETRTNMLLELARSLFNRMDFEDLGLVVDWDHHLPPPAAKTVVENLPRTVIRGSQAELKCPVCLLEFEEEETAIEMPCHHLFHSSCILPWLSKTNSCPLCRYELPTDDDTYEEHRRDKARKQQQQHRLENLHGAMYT
UniProt Q96DB5: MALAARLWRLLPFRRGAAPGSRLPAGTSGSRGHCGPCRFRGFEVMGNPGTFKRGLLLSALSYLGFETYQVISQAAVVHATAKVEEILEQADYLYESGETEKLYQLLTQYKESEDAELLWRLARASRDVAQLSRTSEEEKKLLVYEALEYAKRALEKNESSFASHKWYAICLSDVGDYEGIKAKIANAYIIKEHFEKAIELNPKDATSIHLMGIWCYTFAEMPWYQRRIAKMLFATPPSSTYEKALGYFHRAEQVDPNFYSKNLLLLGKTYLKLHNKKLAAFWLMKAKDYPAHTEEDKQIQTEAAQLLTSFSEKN
UniProt Q8IXI1, whole entry, looked up: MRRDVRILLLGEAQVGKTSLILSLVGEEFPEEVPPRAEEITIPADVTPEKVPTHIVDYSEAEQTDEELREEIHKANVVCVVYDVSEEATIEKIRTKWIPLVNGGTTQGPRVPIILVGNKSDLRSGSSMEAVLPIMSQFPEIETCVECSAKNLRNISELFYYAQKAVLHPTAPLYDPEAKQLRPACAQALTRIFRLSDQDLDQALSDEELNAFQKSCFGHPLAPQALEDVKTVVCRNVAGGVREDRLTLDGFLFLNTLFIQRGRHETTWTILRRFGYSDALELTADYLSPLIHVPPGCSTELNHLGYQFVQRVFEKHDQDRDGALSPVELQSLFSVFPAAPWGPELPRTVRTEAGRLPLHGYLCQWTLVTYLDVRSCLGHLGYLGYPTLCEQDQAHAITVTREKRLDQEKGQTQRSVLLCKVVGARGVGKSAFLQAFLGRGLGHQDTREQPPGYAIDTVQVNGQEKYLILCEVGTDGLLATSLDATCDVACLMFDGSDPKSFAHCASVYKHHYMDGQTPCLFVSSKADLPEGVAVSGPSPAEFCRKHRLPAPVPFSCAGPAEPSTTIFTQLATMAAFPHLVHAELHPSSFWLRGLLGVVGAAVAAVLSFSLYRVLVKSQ
UniProt Q5TBB1: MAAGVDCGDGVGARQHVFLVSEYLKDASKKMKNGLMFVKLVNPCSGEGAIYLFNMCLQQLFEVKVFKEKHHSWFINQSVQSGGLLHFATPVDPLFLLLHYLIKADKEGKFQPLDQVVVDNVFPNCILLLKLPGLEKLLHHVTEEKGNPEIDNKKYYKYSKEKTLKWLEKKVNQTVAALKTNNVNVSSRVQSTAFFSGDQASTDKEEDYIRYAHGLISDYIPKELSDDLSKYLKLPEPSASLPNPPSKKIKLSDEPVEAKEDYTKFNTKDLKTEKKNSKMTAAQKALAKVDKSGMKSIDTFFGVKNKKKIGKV
UniProt P35244: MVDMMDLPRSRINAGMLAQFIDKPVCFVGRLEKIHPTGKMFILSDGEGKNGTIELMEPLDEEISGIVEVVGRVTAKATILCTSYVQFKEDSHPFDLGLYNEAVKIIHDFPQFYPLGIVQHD
UniProt Q96DM3: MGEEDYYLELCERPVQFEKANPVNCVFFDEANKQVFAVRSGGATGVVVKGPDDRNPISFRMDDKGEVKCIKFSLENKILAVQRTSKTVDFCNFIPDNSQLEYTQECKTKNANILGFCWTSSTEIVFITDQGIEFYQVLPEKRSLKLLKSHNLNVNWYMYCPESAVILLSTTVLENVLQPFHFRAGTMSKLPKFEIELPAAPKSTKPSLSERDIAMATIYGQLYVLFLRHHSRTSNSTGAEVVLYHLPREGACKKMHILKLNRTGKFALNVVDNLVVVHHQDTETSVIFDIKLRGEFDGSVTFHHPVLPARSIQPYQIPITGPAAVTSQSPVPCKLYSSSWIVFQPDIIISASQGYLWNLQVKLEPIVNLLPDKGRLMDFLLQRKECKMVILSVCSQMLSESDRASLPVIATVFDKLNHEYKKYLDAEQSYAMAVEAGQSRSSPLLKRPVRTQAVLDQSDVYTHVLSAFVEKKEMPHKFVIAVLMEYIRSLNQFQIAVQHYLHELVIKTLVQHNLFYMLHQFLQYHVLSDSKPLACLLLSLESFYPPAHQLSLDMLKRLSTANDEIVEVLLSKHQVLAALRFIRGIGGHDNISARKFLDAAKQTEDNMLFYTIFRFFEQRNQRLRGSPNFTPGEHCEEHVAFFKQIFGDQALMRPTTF

The other results are listed elsewhere or left out.

Compound in one assay: CNC(=O)c1ccc(Nc2ncc(C(F)(F)F)c(NCc3nccnc3N(C)S(C)(=O)=O)n2)cc1 [defactinib]
Kind of assay: log2 fold change, soluble protein after heating vs DMSO (PISA); higher = thermal stabilisation; K562 lysate, 10 uM; active = over 0.2 and 3.5 SD of the protein, either way, in both replicates (recomputed). The gist of the method:
(§1)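 Quantification was by TMTpro 16plex LC-MS/MS with equalised channel sums, applied to the supernatant after 21,000xg for 90 min. Samples were crude K562 extract at 1 mg/mL protein in PBS pH 7.4 with 1 mM MgCl2, treated with 10 μM compound for 30 min, heated for 3 min across 48°C-58°C, pooled and brought to 0.5% NP-40 at 4°C. Values are log-two fold changes in thermal stability relative to solvent controls, from duplicates.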
For RPL36 (UniProt Q9Y3U8), the log2 fold change was inactive: 0.004.

For the target RPL29 (UniProt P47914), the log2 fold change is inactive: 0.058.

Take RIPK1 (UniProt Q13546): the log2 fold change is inactive: 0.065.

Consider RP2 (UniProt O75695), for which the log2 fold change was inactive: -0.019.

As to RNF166 (UniProt Q96A37), the log2 fold change was inactive: 0.046.

Regarding RPL10A (UniProt P62906), the log2 fold change was inactive: 0.012.

In the case of RIOK3 (UniProt O14730), the log2 fold change is inactive: 0.018.

Turning to RNF146 (UniProt Q9NTX7), the log2 fold change is inactive: 0.064.

With ROR2 (UniProt Q01974), the log2 fold change was inactive: 0.011.

For RPL27 (UniProt P61353), the log2 fold change is inactive: 0.006.

Regarding RPAP3 (UniProt Q9H6T3), the log2 fold change was inactive: -0.01.

RIPK2 (UniProt O43353): the log2 fold change was inactive: -0.019.

Consider RPL35 (UniProt P42766), for which the log2 fold change is inactive: -0.039.

ROCK1 (UniProt Q13464): the log2 fold change is inactive: -0.02.

RNF126 (UniProt Q9BV68): the log2 fold change was inactive: -0.105.

On to RPL18 (UniProt Q07020), for which the log2 fold change is inactive: 0.011.

As for RPL34 (UniProt P49207), the log2 fold change was inactive: 0.009.

For the target RPL13A (UniProt P40429), the log2 fold change is inactive: -0.031.

RNF14 (UniProt Q9UBS8): the log2 fold change is inactive: -0.006.

Regarding RNF168 (UniProt Q8IYW5), the log2 fold change was inactive: -0.026.

On to RPL3 (UniProt P39023), for which the log2 fold change is inactive: 0.024.

Take RPF2 (UniProt Q9H7B2): the log2 fold change was inactive: -0.068.

As to RMDN3 (UniProt Q96TC7), the log2 fold change was inactive: 0.063.

Consider RPL14 (UniProt P50914), for which the log2 fold change is inactive: -0.003.

Take RIC8B isoform 1 (UniProt Q9NVN3): the log2 fold change was inactive: 0.039.

Turning to RPL32 (UniProt P62910), the log2 fold change was inactive: 0.087.

Turning to RIOX2 (UniProt Q8IUF8), the log2 fold change was inactive: 0.09.

On to RNF123 (UniProt Q5XPI4), for which the log2 fold change was inactive: -0.027.

As for RPL30 (UniProt P62888), the log2 fold change is inactive: 0.016.

For the target RNASEH2C (UniProt Q8TDP1), the log2 fold change is inactive: -0.001.

Consider RNF181 (UniProt Q9P0P0), for which the log2 fold change is inactive: 0.044.

With RMDN1 (UniProt Q96DB5), the log2 fold change was inactive: 0.024.

For RHOT2 (UniProt Q8IXI1), the log2 fold change is inactive: -0.034.

For RNASEH2B (UniProt Q5TBB1), the log2 fold change is inactive: 0.092.

As for RPA3 (UniProt P35244), the log2 fold change was inactive: 0.064.

Consider RMC1 (UniProt Q96DM3), for which the log2 fold change is inactive: 0.049.

For RNF213, A0A0A0MTC1, the log2 fold change is inactive: -0.02.

Compound in a further assay: CNc1nc(-c2ccc3c(N)n[nH]c3c2)cc(N2C[C@@H](C(=O)NC3CCCCC3)CC[C@H]2C)n1
The description is as above. The gist of the method: as §1
For RPL36 (UniProt Q9Y3U8), the log2 fold change is inactive: 0.055.

Regarding RPL29 (UniProt P47914), the log2 fold change was inactive: 0.077.

For the target RIPK1 (UniProt Q13546), the log2 fold change was inactive: 0.035.

Take RP2 (UniProt O75695): the log2 fold change was inactive: 0.021.

As for RNF166 (UniProt Q96A37), the log2 fold change is inactive: -0.008.

Turning to RPL10A (UniProt P62906), the log2 fold change was inactive: 0.015.

For RIOK3 (UniProt O14730), the log2 fold change was inactive: 0.12.

As to RNF146 (UniProt Q9NTX7), the log2 fold change was inactive: 0.07.

As to ROR2 (UniProt Q01974), the log2 fold change is inactive: -0.024.

Regarding RPL27 (UniProt P61353), the log2 fold change was inactive: 0.056.

Take RPAP3 (UniProt Q9H6T3): the log2 fold change is inactive: -0.031.

In the case of RIPK2 (UniProt O43353), the log2 fold change was inactive: -0.026.

Regarding RPL35 (UniProt P42766), the log2 fold change was inactive: 0.054.

With ROCK1 (UniProt Q13464), the log2 fold change was inactive: 0.039.

Take RNF126 (UniProt Q9BV68): the log2 fold change is inactive: 0.002.

Consider RPL18 (UniProt Q07020), for which the log2 fold change was inactive: 0.023.

Regarding RPL34 (UniProt P49207), the log2 fold change is inactive: 0.037.

Turning to RPL13A (UniProt P40429), the log2 fold change is inactive: 0.022.

As for RNF14 (UniProt Q9UBS8), the log2 fold change was inactive: -0.01.

As for RNF168 (UniProt Q8IYW5), the log2 fold change was inactive: -0.03.

Consider RPL3 (UniProt P39023), for which the log2 fold change is inactive: -0.06.

In the case of RPF2 (UniProt Q9H7B2), the log2 fold change was inactive: 0.049.

Regarding RMDN3 (UniProt Q96TC7), the log2 fold change is inactive: -0.086.

For RPL14 (UniProt P50914), the log2 fold change is inactive: -0.006.

For RIC8B isoform 1 (UniProt Q9NVN3), the log2 fold change is inactive: 0.144.

On to RPL32 (UniProt P62910), for which the log2 fold change was inactive: 0.02.

Turning to RIOX2 (UniProt Q8IUF8), the log2 fold change was inactive: 0.014.

Consider RNF123 (UniProt Q5XPI4), for which the log2 fold change is inactive: 0.017.

As to RPL30 (UniProt P62888), the log2 fold change is inactive: -0.013.

With RNASEH2C (UniProt Q8TDP1), the log2 fold change was inactive: -0.042.

In the case of RNF181 (UniProt Q9P0P0), the log2 fold change is inactive: -0.008.

For RMDN1 (UniProt Q96DB5), the log2 fold change was inactive: -0.011.

Take RHOT2 (UniProt Q8IXI1): the log2 fold change was inactive: 0.027.

As for RNASEH2B (UniProt Q5TBB1), the log2 fold change was inactive: -0.021.

For RPA3 (UniProt P35244), the log2 fold change is inactive: -0.032.

With RMC1 (UniProt Q96DM3), the log2 fold change is inactive: -0.019.

Regarding RNF213, A0A0A0MTC1, the log2 fold change is inactive: -0.04.
